Publication PMC7271564 (Haematologica, 2019)
Where “and” joins values, the source holds several entries; their conditions need not be identical. Equal entries are not always repeated.

Columns and labels:
[1] = system: CD34+CD38+ cells (CPC/blast); test: HTFC drug sensitivity assay, progenitor/blast cells; assay type: cell-based; settings: Homo sapiens, read-out: median IC50, CD34+CD38+/blast cells from FLT3-ITD mutated AML samples (n=5), Cohort II
[2] = system: CD19+/B cells; test: High throughput no-wash flow cytometry; assay type: cell-based; settings: Homo sapiens, B-cell, read-out: median IC50, CD19+/B cells from healthy donor or patient samples (AML, CLL), Cohort II

IC50 [1]: 554 nM
SMILES: CO[C@@H]1[C@H](N(C)C(=O)c2ccccc2)C[C@H]2O[C@]1(C)n1c3ccccc3c3c4c(c5c6ccccc6n2c5c31)C(=O)NC4 [midostaurin]
IC50 [2]: 314 nM and 319 nM
